From publication PMC12022051
No constants are given. Whether binding was seen depends on the method and setting. For some of these results: In cells and extracts the contact can be indirect. Some binding calls cover weakened binding; strength is not graded here. Blank lines part the entries; values can stand above or below the molecule they belong to.

Chains of the proteins cited; added tags and fusions are not shown.
UniProt P04198: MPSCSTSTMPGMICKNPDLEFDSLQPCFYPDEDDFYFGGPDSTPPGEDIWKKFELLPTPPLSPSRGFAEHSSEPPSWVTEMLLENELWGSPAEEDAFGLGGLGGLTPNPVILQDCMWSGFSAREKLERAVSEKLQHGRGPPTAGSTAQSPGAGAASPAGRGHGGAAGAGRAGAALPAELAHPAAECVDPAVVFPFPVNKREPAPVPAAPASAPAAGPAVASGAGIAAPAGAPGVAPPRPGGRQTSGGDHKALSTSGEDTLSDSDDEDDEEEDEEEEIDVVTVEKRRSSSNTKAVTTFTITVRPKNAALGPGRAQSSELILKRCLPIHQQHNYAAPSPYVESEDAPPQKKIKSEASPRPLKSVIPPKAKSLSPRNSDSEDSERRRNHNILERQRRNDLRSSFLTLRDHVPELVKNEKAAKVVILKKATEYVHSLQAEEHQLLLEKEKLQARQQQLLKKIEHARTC
UniProt Q92830: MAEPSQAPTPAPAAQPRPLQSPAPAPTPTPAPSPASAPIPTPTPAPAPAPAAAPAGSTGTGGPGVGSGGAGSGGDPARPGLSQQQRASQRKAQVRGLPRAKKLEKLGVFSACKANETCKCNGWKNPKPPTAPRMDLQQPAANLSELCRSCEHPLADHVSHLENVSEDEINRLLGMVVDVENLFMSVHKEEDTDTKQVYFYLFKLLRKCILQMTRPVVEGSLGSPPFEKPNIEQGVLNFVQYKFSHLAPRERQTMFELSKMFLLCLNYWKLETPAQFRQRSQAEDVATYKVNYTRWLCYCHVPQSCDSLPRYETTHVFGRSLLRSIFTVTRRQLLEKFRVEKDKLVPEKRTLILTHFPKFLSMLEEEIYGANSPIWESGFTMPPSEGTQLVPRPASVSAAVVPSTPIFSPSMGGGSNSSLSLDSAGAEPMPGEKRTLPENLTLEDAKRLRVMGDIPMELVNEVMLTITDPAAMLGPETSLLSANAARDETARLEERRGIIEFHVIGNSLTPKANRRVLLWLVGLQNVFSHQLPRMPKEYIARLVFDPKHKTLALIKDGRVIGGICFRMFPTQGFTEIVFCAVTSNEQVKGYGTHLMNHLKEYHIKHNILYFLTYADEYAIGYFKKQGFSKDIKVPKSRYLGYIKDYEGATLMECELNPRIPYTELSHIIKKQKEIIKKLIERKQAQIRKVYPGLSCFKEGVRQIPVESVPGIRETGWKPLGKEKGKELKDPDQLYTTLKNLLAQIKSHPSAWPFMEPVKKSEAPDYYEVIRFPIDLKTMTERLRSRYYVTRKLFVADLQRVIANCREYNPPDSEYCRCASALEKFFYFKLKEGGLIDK
UniProt Q92831: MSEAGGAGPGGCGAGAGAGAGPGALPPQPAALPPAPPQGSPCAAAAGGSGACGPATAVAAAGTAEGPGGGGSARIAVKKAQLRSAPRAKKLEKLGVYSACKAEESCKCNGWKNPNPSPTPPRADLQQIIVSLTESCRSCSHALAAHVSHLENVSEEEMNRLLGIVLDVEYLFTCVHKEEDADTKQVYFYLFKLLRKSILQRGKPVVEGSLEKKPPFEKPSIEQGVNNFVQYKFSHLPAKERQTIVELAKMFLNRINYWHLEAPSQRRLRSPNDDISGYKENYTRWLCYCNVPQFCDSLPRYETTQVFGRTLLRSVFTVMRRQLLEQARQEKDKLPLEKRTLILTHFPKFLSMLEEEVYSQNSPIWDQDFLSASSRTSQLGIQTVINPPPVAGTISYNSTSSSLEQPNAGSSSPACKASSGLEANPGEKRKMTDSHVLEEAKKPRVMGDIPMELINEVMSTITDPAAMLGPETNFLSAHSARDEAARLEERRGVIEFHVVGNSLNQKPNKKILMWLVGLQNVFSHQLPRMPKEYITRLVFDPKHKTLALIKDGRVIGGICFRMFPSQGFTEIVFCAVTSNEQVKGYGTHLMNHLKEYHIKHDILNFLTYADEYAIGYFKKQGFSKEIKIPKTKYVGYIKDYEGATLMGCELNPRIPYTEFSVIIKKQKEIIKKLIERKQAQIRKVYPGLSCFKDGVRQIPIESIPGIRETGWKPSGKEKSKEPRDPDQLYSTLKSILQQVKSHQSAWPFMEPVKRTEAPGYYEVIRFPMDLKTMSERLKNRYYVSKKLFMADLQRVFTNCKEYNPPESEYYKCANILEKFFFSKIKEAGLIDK
UniProt P61244: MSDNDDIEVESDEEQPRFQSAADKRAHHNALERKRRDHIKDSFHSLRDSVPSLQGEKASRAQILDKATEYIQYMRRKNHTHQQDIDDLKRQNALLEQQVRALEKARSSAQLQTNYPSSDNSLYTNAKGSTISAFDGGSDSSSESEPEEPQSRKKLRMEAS

Assays:
[1] = target: MYCN (human (endogenous in IMR32)) (UniProt P04198); test: SEC; IMR32 cell lysate separated by HPLC on a Sepax SRT SEC 300 column; fractions on SDS-PAGE and western blot
[2] = target: MYCN (human (endogenous in IMR32)) (UniProt P04198); test: co-IP; anti-MYCN antibody (Santa Cruz sc-53993) on Dynabeads, IMR32 whole cell extracts; lysis buffer 50 mM Tris-HCl pH 7.5, 137 mM NaCl, 1 mM DTT, 1 mM EDTA, 0.5% Triton X-100; 4 °C, 4 h; western blot; samples with or without benzonase
[3] = target: Lysine Acetyltransferase 2A (human (endogenous in IMR32)) (UniProt Q92830); test: co-IP; KAT2A co-IP from NB cells, western blot for TADA2A and TADA2B

Molecule: KAT2B (from UniProt Q92831 1-832)
binding [2]: no binding

B1: TADA2A (protein, UniProt O75478 1-443)
chain: MDRLGPFSNDPSDKPPCRGCSSYLMEPYIKCAECGPPPFFLCLQCFTRGFEYKKHQSDHTYEIMTSDFPVLDPSWTAQEEMALLEAVMDCGFGNWQDVANQMCTKTKEECEKHYMKHFINNPLFASTLLNLKQAEEAKTADTAIPFHSTDDPPRPTFDSLLSRDMAGYMPARADFIEEFDNYAEWDLRDIDFVEDDSDILHALKMAVVDIYHSRLKERQRRKKIIRDHGLINLRKFQLMERRYPKEVQDLYETMRRFARIVGPVEHDKFIESHALEFELRREIKRLQEYRTAGITNFCSARTYDHLKKTREEERLKRTMLSEVLQYIQDSSACQQWLRRQADIDSGLSPSIPMASNSGRRSAPPLNLTGLPGTEKLNEKEKELCQMVRLVPGAYLEYKSALLNECNKQGGLRLAQARALIKIDVNKTRKIYDFLIREGYITKG
binding [3]: binds

B2: TADA2B (protein, UniProt Q86TJ2 1-420)
chain: MAELGKKYCVYCLAEVSPLRFRCTECQDIELCPECFSAGAEIGHHRRYHGYQLVDGGRFTLWGPEAEGGWTSREEQLLLDAIEQFGFGNWEDMAAHVGASRTPQEVMEHYVSMYIHGNLGKACIPDTIPNRVTDHTCPSGGPLSPSLTTPLPPLDISVAEQQQLGYMPLRDDYEIEYDQDAETLISGLSVNYDDDDVEIELKRAHVDMYVRKLKERQRRKNIARDYNLVPAFLGKDKKEKEKALKRKITKEEKELRLKLRPLYQFMSCKEFDDLFENMHKEKMLRAKIRELQRYRRNGITKMEESAEYEAARHKREKRKENKNLAGSKRGKEDGKDSEFAAIENLPGFELLSDREKVLCSSLNLSPARYVTVKTIIIKDHLQKRQGIPSKSRLPSYLDKVLKKRILNFLTESGWISRDAS
binding [3]: binds

Other lines, results leading:

binding [1]: binds | binding [2]: binds
Molecule: MAX (from UniProt P61244 1-160)

binding [1]: binds | binding [2]: binds
Molecule: Lysine Acetyltransferase 2A (from UniProt Q92830 1-837)
